Reference: PMC7108782, “Direct interaction of metastasis-inducing S100P protein with tubulin causes enhanced cell migration without changes in cell adhesion” (Biochemical Journal, 2020)
These are yes or no findings as the source states them, for the method shown. Some entries that bind do so weakly or less than the wild type.

Columns and labels:
[1] = target: T1, Non muscle myosin IIA peptide; test: far-Western, overlay or dot blot; gel overlay: equal molar proteins on 10% SDS-PAGE, blotted onto PVDF, incubated with 3 µg/ml S100P at 4°C overnight, bound S100P probed with anti-S100P; both purified
T1 sequence (peptide): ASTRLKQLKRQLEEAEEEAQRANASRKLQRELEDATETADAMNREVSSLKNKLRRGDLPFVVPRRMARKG

lysozyme = lysozyme (UniProt P00698); test: as above

binding [1]: binds
binding (lysozyme): no binding (tested: 3 µg/ml S100P)
B1: S100P (protein, UniProt P25815 1-95)
chain: MTELETAMGMIIDVFSRYSGSEGSTQTLTKGELKVLMEKELPGFLQSGKDKDAVDKLLKDLDANGDAQVDFSEFIVFVAAITSACHKYFEKAGLK
